{
  "sequences": {"note": "Amino acid sequences for entries named in this document (tags omitted). A change or cut given only in a name is not applied to a line headed by its entry.", "UniProt Q06187": "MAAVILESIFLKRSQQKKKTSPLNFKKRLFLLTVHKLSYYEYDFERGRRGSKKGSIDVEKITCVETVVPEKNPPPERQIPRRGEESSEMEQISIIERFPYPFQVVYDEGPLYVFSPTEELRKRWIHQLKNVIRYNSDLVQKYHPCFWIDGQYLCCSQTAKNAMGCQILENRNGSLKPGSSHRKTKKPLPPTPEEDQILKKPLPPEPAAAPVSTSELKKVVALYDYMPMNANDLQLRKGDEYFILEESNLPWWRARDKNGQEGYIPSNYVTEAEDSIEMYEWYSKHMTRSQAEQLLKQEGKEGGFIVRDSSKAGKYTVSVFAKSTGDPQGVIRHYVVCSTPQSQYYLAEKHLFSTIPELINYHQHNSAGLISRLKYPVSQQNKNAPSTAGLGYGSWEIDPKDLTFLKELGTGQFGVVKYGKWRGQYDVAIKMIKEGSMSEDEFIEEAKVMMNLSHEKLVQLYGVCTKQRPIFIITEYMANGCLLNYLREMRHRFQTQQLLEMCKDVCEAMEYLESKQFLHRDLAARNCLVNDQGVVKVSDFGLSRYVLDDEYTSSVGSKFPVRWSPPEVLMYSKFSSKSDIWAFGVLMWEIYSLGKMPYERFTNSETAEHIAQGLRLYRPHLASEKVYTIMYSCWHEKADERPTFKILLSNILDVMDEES"},
  "source": "the supplement of paper PMC12823440",
  "about": "“Inhibitors supercharge kinase turnover through native proteolytic circuits” (Nature, 2025)",
  "note": "Counter-ions that a name gives are not always drawn. The list shows a part of the results. Hit calls seldom repeat between salt and free forms of one compound.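 In K562 cells expressing nanoluciferase-fused kinases, luminescence was recorded at 4 h intervals between 2 and 18 h, normalized as percent of control with DMSO at 100% and a positive control at 0%. A significant (2 sigma) signal drop marks a time point as decreased. The authors' rule for a hit is not shown and takes in more than the number of time points.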",
  "data": [
    {"biological_target": "BTK (UniProt Q06187)", "experiment": "number of time points (of 5) at which kinase-Nluc abundance scored as decreased, DMSO-normalised (count); higher = more persistent destabilization", "conditions": "K562; 2-18 h", "values": [
      {"smiles": "N#Cc1cnc2c(Cl)cc(NCc3cn(CCN4CCCCCC4)nn3)cc2c1Nc1ccc(F)c(Cl)c1", "note": "[Cot inhibitor-1] (10 µM)", "number of time points": 0},
      {"smiles": "Cc1cc(Nc2cc(N)ncn2)c(=O)n2c1C(=O)NC21CCCCC1", "note": "[Tomivosertib] (10 µM)", "number of time points": 0},
      {"smiles": "CC(Cc1ccc(O)c(O)c1)C(C)Cc1ccc(O)c(O)c1", "note": "(stereo not drawn) [Nordihydroguaiaretic acid] (2.5 µM)", "number of time points": 0},
      {"smiles": "CNC(=O)c1ccc2c(C(=Nc3cccc(CN(C)C)c3)c3ccccc3)c(O)[nH]c2c1", "note": "[MEK inhibitor] (10 µM)", "number of time points": 0},
      {"smiles": "COC(=O)[C@H](CCSC)NC(=O)c1ccc(NC[C@@H](N)CS)cc1-c1ccccc1", "note": "[FTI-277 (hydrochloride)] (10 µM)", "number of time points": 0},
      {"smiles": "C=CC(=O)Nc1ccc(C(=O)Nc2[nH]nc3c2CN(C(=O)N[C@H](CN(C)C)c2ccccc2)C3(C)C)cc1", "note": "(10 µM)", "number of time points": 0},
      {"smiles": "CCN(CC)CCCC(C)Nc1nc(C)cc(Nc2ccc3nc(C)cc(N)c3c2)n1", "note": "(stereo not drawn) (10 µM)", "number of time points": 0},
      {"smiles": "COc1cc(F)ccc1-c1ncnc(Nc2cccc(C[S@](C)(=N)=O)c2)n1", "note": "[Atuveciclib] (2.5 µM)", "number of time points": 0},
      {"smiles": "O=C(c1cccc(Cl)c1F)N1CCN(Cc2cccc(Nc3nccs3)n2)CC1", "note": "(2.5 µM)", "number of time points": 0},
      {"smiles": "N#Cc1ccc(-c2cnc3ccc(-c4ccc(C(=O)N5CCOCC5)cc4)cn23)cc1", "note": "(10 µM)", "number of time points": 0},
      {"smiles": "Cc1ccc(C(=O)NC2CC2)cc1-n1ncc(C(=O)c2cccc(C#N)c2)c1N", "note": "[Acumapimod] (10 µM)", "number of time points": 0},
      {"smiles": "N#Cc1ccc(-c2cnc3[nH]cc(NC(=O)c4cccnc4)c3c2)cc1", "note": "(10 µM)", "number of time points": 0},
      {"smiles": "CC1(N)CCN(c2cccnc2NC(=O)c2nc(-c3ncccc3C(F)(F)F)cnc2N)CC1", "note": "[Darovasertib] (10 µM)", "number of time points": 0},
      {"smiles": "COc1cc(N2CCC(N3CCN(C)CC3)CC2)ccc1Nc1ncc(Cl)c(-c2c[nH]c3ccccc23)n1", "note": "(2.5 µM)", "number of time points": 0},
      {"smiles": "CN1CCN(c2ccc(Nc3ncc4cc(C#N)c(=O)n(C5CCCC5)c4n3)cc2)CC1", "note": "(10 µM)", "number of time points": 0},
      {"smiles": "CO[C@H]1CC[C@H](N2C(=O)CNc3ncc(-c4ccc(C(C)(C)O)nc4)nc32)CC1", "note": "(2.5 µM)", "number of time points": 0},
      {"smiles": "Cc1c(C(=O)Nc2ccc(Oc3ccnc4[nH]cc(-c5ccccc5)c34)c(F)c2)c(=O)n(-c2ccc(F)cc2)n1C", "note": "(10 µM)", "number of time points": 0},
      {"smiles": "COc1ccc(Nc2ncc(C(F)(F)F)c(NC3CC3)n2)cc1OC", "note": "(10 µM)", "number of time points": 0},
      {"smiles": "C[C@@H]1O[C@@H](Oc2cc(O)c3c(=O)c(O[C@@H]4O[C@@H](C)[C@H](O)[C@@H](O)[C@H]4O)c(-c4ccc(O)cc4)oc3c2)[C@H](O)[C@H](O)[C@H]1O", "note": "[Kaempferitrin] (10 µM)", "number of time points": 0},
      {"smiles": "COC(=O)Nc1ccc(-c2nc(N3CCOCC3)c3cnn(C4CCN(Cc5cccnc5)CC4)c3n2)cc1", "note": "(10 µM)", "number of time points": 0},
      {"smiles": "CC(C)Oc1ccc(F)c(-c2cnc(N)c(C(=O)Nc3cnccc3N3CCC[C@@H](C(=O)O)C3)n2)c1", "note": "(2 µM)", "number of time points": 0},
      {"smiles": "O=Nc1c(-c2c(O)[nH]c3cc(Br)ccc23)[nH]c2ccccc12", "note": "[GSK 3 Inhibitor IX] (2.5 µM)", "number of time points": 0},
      {"smiles": "NCC1CCC(CNc2nc(NCc3ccccc3OC(F)(F)F)ncc2[N+](=O)[O-])CC1", "note": "(stereo not drawn) [PKC-theta inhibitor] (10 µM)", "number of time points": 0},
      {"smiles": "N[C@@H]1CCCN(c2c(/C=C3\\SC(=O)NC3=O)cccc2-c2ccccc2)C1", "note": "(10 µM)", "number of time points": 0},
      {"smiles": "CCn1c(-c2nonc2N)nc2c(C#CC(C)(C)O)ncc(OC[C@H]3CCCNC3)c21", "note": "(10 µM)", "number of time points": 0},
      {"smiles": "CNC(=O)c1cc2c(Oc3ccc(NC(=O)C4(C(=O)Nc5ccc(F)cc5)CC4)cc3)ccnc2cc1OC", "note": "(2.5 µM)", "number of time points": 0},
      {"smiles": "C=CC(=O)N1CC[C@@H](Oc2nc(Nc3ccc(N4CCC(N5CCN(C)CC5)CC4)cc3)c(C(N)=O)nc2CC)C1", "note": "[Naquotinib (mesylate)] (2.5 µM)", "number of time points": 0},
      {"smiles": "C=CC(=O)Nc1cc(Nc2nccc(-c3cn(C)c4ccccc34)n2)c(OC)cc1OCCN(C)C", "note": "[Rezivertinib] (2.5 µM)", "number of time points": 0},
      {"smiles": "Oc1c(F)cc(-c2cnccc2-c2ccc(N3CCOCC3)cc2)cc1F", "note": "(10 µM)", "number of time points": 0},
      {"smiles": "Brc1ccc(CSc2nc3ccccc3o2)cc1", "note": "[BMP signaling agonist sb4] (10 µM)", "number of time points": 0},
      {"smiles": "O=C1OC(/C=C/c2ccccc2)=NC/1=C\\c1cccnc1", "note": "(10 µM)", "number of time points": 0},
      {"smiles": "O=C(NCCN1CCOCC1)Nc1nc2ccc(Sc3nnc4ccc(-c5ccc(F)cc5)nn34)cc2s1", "note": "(10 µM)", "number of time points": 0},
      {"smiles": "Cn1c(CNc2cccc(C(=O)NCc3ccccc3C(F)(F)F)c2)nnc1-c1ccncc1", "note": "(10 µM)", "number of time points": 0},
      {"smiles": "COc1cc2cc(Oc3ccc4ccc(=O)oc4c3)c(=O)oc2cc1O", "note": "[Daphnoretin] (10 µM)", "number of time points": 0},
      {"smiles": "O=C(O)c1cc(N(Cc2ccccc2O)Cc2cc(O)ccc2O)ccc1O", "note": "[Lavendustin A] (10 µM)", "number of time points": 0},
      {"smiles": "Cc1c(Cl)cccc1S(=O)(=O)Nc1nc(NCCc2ccccc2)nc2c1CN(Cc1ccccc1)CC2", "note": "(2.5 µM)", "number of time points": 0},
      {"smiles": "CO[C@H]1C[C@@H]2CC[C@@H](C)[C@@](O)(O2)C(=O)C(=O)N2CCCC[C@H]2C(=O)O[C@H]([C@H](C)C[C@@H]2CC[C@@H](OC(=O)C(C)(CO)CO)[C@H](OC)C2)CC(=O)[C@H](C)/C=C(\\C)[C@@H](O)[C@@H](OC)C(=O)[C@H](C)C[C@H](C)/C=C/C=C/C=C/1C", "note": "[Temsirolimus] (2.5 µM)", "number of time points": 0},
      {"smiles": "O=C1Nc2ccc(CN3C(=O)CSC3=O)cc2/C1=C/c1cc(CN2CCOCC2)c[nH]1", "note": "(10 µM)", "number of time points": 0}
    ]}
  ]
}
